# Measured values as given in publication PMC8917168.
# The chains behind the UniProt entries cited, without tags or fusion partners. Where a name states a change or a piece, a line headed by the entry shows the natural chain unless it says otherwise. Residues count along the entry.
# UniProt Q3UP24: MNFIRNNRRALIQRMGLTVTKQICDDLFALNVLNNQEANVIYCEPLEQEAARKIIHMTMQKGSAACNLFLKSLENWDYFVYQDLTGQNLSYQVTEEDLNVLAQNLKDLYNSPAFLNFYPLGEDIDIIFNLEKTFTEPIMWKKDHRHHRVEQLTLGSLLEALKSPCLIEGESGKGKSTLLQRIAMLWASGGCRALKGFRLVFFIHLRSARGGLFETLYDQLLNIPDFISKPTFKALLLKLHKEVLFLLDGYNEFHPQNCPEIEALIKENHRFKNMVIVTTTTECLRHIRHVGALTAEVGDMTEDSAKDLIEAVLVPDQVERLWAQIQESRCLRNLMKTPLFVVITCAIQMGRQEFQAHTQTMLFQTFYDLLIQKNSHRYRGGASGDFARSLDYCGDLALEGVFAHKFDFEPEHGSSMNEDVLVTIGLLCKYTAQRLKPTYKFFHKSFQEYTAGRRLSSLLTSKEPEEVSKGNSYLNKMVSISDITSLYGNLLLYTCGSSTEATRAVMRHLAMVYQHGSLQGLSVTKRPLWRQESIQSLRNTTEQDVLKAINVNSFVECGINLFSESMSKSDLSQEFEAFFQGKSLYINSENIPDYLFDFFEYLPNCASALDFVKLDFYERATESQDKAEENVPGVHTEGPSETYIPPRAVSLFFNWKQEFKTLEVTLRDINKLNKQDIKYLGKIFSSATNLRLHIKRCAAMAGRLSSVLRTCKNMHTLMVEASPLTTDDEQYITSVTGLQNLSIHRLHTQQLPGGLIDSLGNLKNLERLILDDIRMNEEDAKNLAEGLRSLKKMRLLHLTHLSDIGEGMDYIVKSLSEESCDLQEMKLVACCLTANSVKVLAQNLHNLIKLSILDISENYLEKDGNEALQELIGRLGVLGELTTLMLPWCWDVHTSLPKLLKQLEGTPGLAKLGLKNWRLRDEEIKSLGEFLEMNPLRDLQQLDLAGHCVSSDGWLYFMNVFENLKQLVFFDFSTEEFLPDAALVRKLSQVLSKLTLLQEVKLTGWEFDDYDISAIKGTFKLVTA
# UniProt P28867: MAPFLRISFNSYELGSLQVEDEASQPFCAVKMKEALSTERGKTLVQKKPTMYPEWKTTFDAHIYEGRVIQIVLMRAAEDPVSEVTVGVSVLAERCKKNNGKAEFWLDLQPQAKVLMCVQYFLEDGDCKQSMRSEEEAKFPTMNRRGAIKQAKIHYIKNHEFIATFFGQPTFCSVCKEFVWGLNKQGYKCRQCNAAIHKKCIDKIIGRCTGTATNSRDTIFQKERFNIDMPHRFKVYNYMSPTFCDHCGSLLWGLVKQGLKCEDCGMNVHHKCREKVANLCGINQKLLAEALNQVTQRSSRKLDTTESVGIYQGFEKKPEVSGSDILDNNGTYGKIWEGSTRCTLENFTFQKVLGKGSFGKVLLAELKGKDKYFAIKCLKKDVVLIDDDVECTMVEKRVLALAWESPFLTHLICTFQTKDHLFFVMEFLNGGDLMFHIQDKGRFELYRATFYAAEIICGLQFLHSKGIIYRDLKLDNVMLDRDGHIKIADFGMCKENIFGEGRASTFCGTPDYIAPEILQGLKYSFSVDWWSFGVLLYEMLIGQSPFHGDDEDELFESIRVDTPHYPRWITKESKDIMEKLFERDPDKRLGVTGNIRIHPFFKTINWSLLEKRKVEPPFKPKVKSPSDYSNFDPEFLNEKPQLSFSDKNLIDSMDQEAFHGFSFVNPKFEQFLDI
# UniProt Q9I788: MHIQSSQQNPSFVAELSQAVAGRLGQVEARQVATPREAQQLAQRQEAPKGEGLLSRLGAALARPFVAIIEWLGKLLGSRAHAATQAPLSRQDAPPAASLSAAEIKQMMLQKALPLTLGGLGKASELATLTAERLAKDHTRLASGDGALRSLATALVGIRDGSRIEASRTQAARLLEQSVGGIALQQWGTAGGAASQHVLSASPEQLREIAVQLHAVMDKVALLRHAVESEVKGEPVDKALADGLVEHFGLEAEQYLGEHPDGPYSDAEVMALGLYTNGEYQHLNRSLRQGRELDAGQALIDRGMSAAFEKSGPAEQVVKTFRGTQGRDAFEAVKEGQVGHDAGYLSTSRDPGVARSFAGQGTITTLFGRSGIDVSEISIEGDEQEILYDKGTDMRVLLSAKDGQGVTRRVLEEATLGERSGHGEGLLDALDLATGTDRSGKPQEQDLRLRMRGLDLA
# UniProt P00520: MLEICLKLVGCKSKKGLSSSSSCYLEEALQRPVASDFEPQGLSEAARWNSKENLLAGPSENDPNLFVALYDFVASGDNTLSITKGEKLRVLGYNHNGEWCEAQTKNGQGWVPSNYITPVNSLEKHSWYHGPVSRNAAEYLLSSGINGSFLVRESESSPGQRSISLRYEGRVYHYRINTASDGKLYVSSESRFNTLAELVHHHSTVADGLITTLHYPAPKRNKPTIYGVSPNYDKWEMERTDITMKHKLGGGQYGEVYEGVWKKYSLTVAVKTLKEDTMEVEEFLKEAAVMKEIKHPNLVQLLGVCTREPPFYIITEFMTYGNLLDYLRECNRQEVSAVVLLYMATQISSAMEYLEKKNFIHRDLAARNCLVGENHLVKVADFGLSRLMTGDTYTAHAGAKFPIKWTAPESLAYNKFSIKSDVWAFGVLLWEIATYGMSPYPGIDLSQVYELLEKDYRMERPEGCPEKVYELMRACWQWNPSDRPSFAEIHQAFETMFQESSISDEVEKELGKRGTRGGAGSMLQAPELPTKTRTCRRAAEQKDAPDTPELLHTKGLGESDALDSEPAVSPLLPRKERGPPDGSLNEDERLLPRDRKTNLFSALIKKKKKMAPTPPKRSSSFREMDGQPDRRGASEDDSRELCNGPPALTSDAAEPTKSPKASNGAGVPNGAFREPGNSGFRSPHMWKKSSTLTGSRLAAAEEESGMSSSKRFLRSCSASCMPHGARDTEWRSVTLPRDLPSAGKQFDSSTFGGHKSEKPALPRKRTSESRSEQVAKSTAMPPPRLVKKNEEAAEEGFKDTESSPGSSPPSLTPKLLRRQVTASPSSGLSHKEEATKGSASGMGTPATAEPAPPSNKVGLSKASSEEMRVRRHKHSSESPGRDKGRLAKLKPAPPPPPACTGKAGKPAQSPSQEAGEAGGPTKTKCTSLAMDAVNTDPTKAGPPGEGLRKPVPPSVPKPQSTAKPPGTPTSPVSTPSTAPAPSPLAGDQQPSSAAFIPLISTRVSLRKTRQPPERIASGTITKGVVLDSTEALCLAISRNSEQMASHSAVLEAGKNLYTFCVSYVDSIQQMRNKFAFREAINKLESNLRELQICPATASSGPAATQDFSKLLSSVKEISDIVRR
# CrkI isoform of Crk adaptor protein (Q64010, residues 1-204): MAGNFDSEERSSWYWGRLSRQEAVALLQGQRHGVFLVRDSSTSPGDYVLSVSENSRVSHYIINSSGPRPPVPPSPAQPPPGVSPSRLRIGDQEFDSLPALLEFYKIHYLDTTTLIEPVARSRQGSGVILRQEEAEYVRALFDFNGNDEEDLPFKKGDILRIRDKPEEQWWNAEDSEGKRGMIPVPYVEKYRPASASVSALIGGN
# Results are given in words; binding and its absence hold for the method and conditions named. Binding seen in cells or lysates may run through a third protein. Some binding calls cover weakened binding; strength is not graded here.
# What was measured:
# [1] = molecular target: NLRC4 (mouse (endogenous in BMDMs from C57BL/6)) (UniProt Q3UP24); assay: co-IP; endogenous proteins; BMDMs from C57BL/6 infected with P. aeruginosa at M.O.I. of 20 for 2 h; whole-cell lysates immunoprecipitated with antibodies against NLRC4, PKCδ or Abl and immunoblotted (Fig. 6a)
# [2] = molecular target: PKCδ kinase (mouse (endogenous in BMDMs from C57BL/6)) (UniProt P28867); assay: as above
# [3] = molecular target: PKCδ kinase (mouse (endogenous in BMDMs from C57BL/6)) (UniProt P28867); assay: co-IP; endogenous proteins; BMDMs from C57BL/6 infected with ExoT-deleted or ExoT-expressing P. aeruginosa strains for 2 h; whole-cell lysates and supernatants immunoprecipitated with antibodies against NLRC4, PKCδ, Crk or Abl and immunoblotted (Fig. 6l)
# ExoT-GFP (P. aeruginosa) = ExoT-GFP (P. aeruginosa) (UniProt Q9I788); assay: co-IP; BMDMs pretreated with Z-VAD (60 µM), transfected with GFP fusions of ExoT for about 24 h, then treated with PBS (uninfected) or infected with the ∆U∆T strain for 2 h; whole-cell lysates immunoprecipitated with antibodies against GFP (bait) and immunoblotted
# [4] = molecular target: Abl tyrosine kinase (mouse (endogenous in BMDMs from C57BL/6)) (UniProt P00520); assay: co-IP; as a1, but BMDMs without infection (Fig. 6a)
# [5] = molecular target: Abl tyrosine kinase (mouse (endogenous in BMDMs from C57BL/6)) (UniProt P00520); assay: co-IP; endogenous proteins; BMDMs from C57BL/6 infected with P. aeruginosa at M.O.I. of 20 for 2 h; whole-cell lysates immunoprecipitated with antibodies against NLRC4, PKCδ or Abl and immunoblotted (Fig. 6a)
# [6] = molecular target: Abl tyrosine kinase (mouse (endogenous in BMDMs from C57BL/6)) (UniProt P00520); assay: co-IP; endogenous proteins; BMDMs from C57BL/6 infected with ExoT-deleted or ExoT-expressing P. aeruginosa strains for 2 h; whole-cell lysates and supernatants immunoprecipitated with antibodies against NLRC4, PKCδ, Crk or Abl and immunoblotted (Fig. 6l)
substance,measurement,setting,value
Abl tyrosine kinase (from UniProt P00520 1-1123) (enzyme),binding,[1],no binding
same,binding,[2],binds
same,binding,[3],binds
CrkI isoform of Crk adaptor protein (from UniProt Q64010-2 1-204),binding,[1],no binding
same,binding,[2],no binding
same,binding,ExoT-GFP (P. aeruginosa),binds
CrkII isoform of Crk adaptor protein (from UniProt Q64010-1 1-304),binding,[4],no binding (condition: cells without infection)
same,binding,[5],binds
same,binding,[1],no binding
same,binding,[2],no binding
same,binding,[6],binds
same,binding,ExoT-GFP (P. aeruginosa),binds
NLRC4 (from UniProt Q3UP24 1-1024),binding,[2],binds
same,binding,[3],binds
PKCδ kinase (from UniProt P28867 1-674) (enzyme),binding,[1],binds
